PubChem BioAssay AID743121 | NCATS | 2013

Screen: 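Genes whose silencing strengthens cell killing by camptothecin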 (primary screen)
Cells: MDA-MB-231 cells, a human breast cancer line
Reagent: single siRNA against human genes, 20 nM siRNA (0.8 pmol per well)
Time to read-out: 120 h (drug added 48 h after transfection, read 72 h later)
Treatment: camptothecin 20 nM (about EC30) for 72 h; vehicle 0.1% DMSO in parallel plates
Read-out: 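Cell viability by ATP luminescence (CellTiter-Glo) as % of non-targeting siRNA wells, and the log2 ratio of viability without drug over viability with camptothecin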
Scale: log2 vehicle/camptothecin viability: higher = stronger sensitisation to camptothecin; viability with camptothecin and viability without drug: higher = more viable cells
Active means: 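Each gene scored by redundant siRNA activity (RSA) over its individual siRNA ratios; a gene is called active at p < 0.001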
Shown is one part, drawn at random, of about 26,000 deposited reagents. Over the whole deposit, 167 (0.63%) were called active. 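Calls are per gene from RSA p-values that are not deposited; an individual active-marked siRNA can sensitise only weakly.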 Reagents against one gene are numbered here. No sequences are given here.

gene knocked down | reagent | log2 vehicle/camptothecin viability | viability with camptothecin (% of control) | viability without drug (% of control) | activity call
GNAI1 | 1 | -0.132 | 119 | 109 | inactive
GNAI1 | 2 | 0.0595 | 72.7 | 75.7 | inactive
GNAI1 | 3 | -0.0933 | 113 | 106 | inactive
GNAI1 | 4 | 0.471 | 20.3 | 28.1 | inactive
GOSR1 | 1 | 0.17 | 55.7 | 62.7 | inactive
GOSR1 | 2 | -0.173 | 116 | 103 | inactive
GOSR1 | 3 | -0.0362 | 51.4 | 50.1 | inactive
GOSR1 | 4 | -0.248 | 108 | 91 | inactive
DUSP11 | 1 | -0.409 | 74.6 | 56.2 | inactive
DUSP11 | 2 | 1.21 | 33.3 | 77.1 | inactive
DUSP11 | 3 | -0.117 | 103 | 95.3 | inactive
DUSP11 | 4 | -0.28 | 32.4 | 26.6 | inactive
NISCH | 1 | -0.292 | 98.1 | 80.2 | inactive
NISCH | 2 | 0.291 | 72.1 | 88.2 | inactive
NISCH | 3 | -0.155 | 58.7 | 52.7 | inactive
NISCH | 4 | 0.135 | 86.5 | 95 | inactive
RDH5 | 1 | -0.477 | 88.2 | 63.4 | inactive
RDH5 | 2 | 1.13 | 20.1 | 44 | inactive
RDH5 | 3 | 0.0851 | 49.4 | 52.4 | inactive
RDH5 | 4 | 0.381 | 25.3 | 33 | inactive
GNA15 | 1 | 0.0659 | 12.9 | 13.5 | inactive
GNA15 | 2 | 0.00656 | 90.5 | 90.9 | inactive
GNA15 | 3 | -0.467 | 69.4 | 50.2 | inactive
PCM1 | 1 | -0.383 | 133 | 102 | inactive
PCM1 | 2 | 0.0687 | 120 | 126 | inactive
PCM1 | 3 | -0.244 | 107 | 90.6 | inactive
PCM1 | 4 | 0.0608 | 47.8 | 49.8 | inactive

Entries above whose gene name begins with N or n:
gene knocked down | reagent | log2 vehicle/camptothecin viability | viability with camptothecin (% of control) | viability without drug (% of control) | activity call
NISCH | 1 | -0.292 | 98.1 | 80.2 | inactive
NISCH | 2 | 0.291 | 72.1 | 88.2 | inactive
NISCH | 3 | -0.155 | 58.7 | 52.7 | inactive
NISCH | 4 | 0.135 | 86.5 | 95 | inactive

The results go on.
gene knocked down | reagent | log2 vehicle/camptothecin viability | viability with camptothecin (% of control) | viability without drug (% of control) | activity call
RAB1A | 1 | -0.378 | 56.6 | 43.6 | inactive
RAB1A | 2 | 0.418 | 34.4 | 46 | inactive
RAB1A | 3 | -0.279 | 124 | 102 | inactive
RAB1A | 4 | -0.0951 | 104 | 97.5 | inactive
GUCA1B | 1 | -0.634 | 115 | 74.4 | inactive
GUCA1B | 2 | -0.105 | 104 | 96.5 | inactive
GUCA1B | 3 | 0.499 | 58.3 | 82.3 | inactive
PRKCA | 1 | -0.239 | 67.9 | 57.5 | inactive
PRKCA | 2 | 0.0891 | 87.1 | 92.7 | inactive
PRKCA | 3 | 0.223 | 85.6 | 99.9 | inactive
PRKCA | 4 | -0.43 | 66.8 | 49.6 | inactive
GML | 1 | -0.38 | 56 | 43 | inactive
GML | 2 | -0.235 | 70 | 59.5 | inactive
GML | 3 | -0.0257 | 42 | 41.3 | inactive
GML | 4 | 0.0201 | 83.8 | 85 | inactive
RFX2 | 1 | 0.0155 | 108 | 109 | inactive
RFX2 | 2 | -0.176 | 123 | 109 | inactive
RFX2 | 3 | 0.11 | 39.9 | 43.1 | inactive
RFX2 | 4 | 0.484 | 80.2 | 112 | inactive
